Test system: MHC I
Test: Targeted MS (PRM) detection of peptides eluted from MHC I of peptide-pulsed BMDCs
Parameters: species or system mouse (BALB/cJ BMDCs)
[1] = BMDCs pulsed with 18-mer Ccdc85c^MUT, heavy labeled spike-in, PRM

Sequence | detection by targeted MS among MHC I-eluted peptides (BMDCs pulsed with 18-mer Alms1^MUT) | detection by targeted MS among MHC I-eluted peptides [1]
LYLDSKSDTTV | identified among the peptides eluted from MHC I molecules | 
TYIRPFETKVK |  | presence
YIRPFETKVK |  | presence

— publication PMC8571378, “Reversion analysis reveals the in vivo immunogenicity of a poorly MHC I-binding cancer neoepitope” (Nature Communications, 2021)
